The text below walks through data of patent US20090099080A1.

No constants are given. Whether binding was seen depends on the method and setting. For part of these data: In cells and extracts the contact can be indirect. Some binding calls cover weakened binding; strength is not graded here. For part of these data: Sequences can lack the tags named with a protein.

Holding throughout (details): remark: other sources report otherwise
Test [1] addresses recombinant CypD (purified, in solution), P30405. In words: GST pull down, cell-free, CypD immunoblot (FIG. 10A); abolished by cyclosporine A, not by geldanamycin.
For test [2] the target is unchanged. The test is described as follows: GST pull down of recombinant CypD, CypD immunoblot. In general terms: A western blot detects proteins with antibodies after separation by electrophoresis.
Test [3] addresses Cyclophilin D (CypD, peptidylprolyl isomerase F, ppif), endogenous protein of Raji mitochondrial extracts (human), P30405. In words: co-immunoprecipitation with antibody to TRAP-1 from Raji mitochondrial extracts, Western blot; complex prevented by cyclosporine A, not by geldanamycin.

B1: GST-TRAP-1, Q12931 60-704 (protein, UniProt Q12931 60-704, looked up, not shown: a dimerising Fc or GST)
chain: STQTAEDKEEPLHSIISSTESVQGSTSKHEFQAETKKLLDIVARSLYSEKEVFIRELISNASDALEKLRHKLVSDGQALPEMEIHLQTNAEKGTITIQDTGIGMTQEELVSNLGTIARSGSKAFLDALQNQAEASSKIIGQFGVGFYSAFMVADRVEVYSRSAAPGSLGYQWLSDGSGVFEIAEASGVRTGTKIIIHLKSDCKEFSSEARVRDVVTKYSNFVSFPLYLNGRRMNTLQAIWMMDPKDVREWQHEEFYRYVAQAHDKPRYTLHYKTDAPLNIRSIFYVPDMKPSMFDVSRELGSSVALYSRKVLIQTKATDILPKWLRFIRGVVDSEDIPLNLSRELLQESALIRKLRDVLQQRLIKFFIDQSKKDAEKYAKFFEDYGLFMREGIVTATEQEVKEDIAKLLRYESSALPSGQLTSLSEYASRMRAGTRNIYYLCAPNRHLAEHSPYYEAMKKKDTEVLFCFEQFDELTLLHLREFDKKKLISVETDIVVDHYKEEKFEDRSPAAECLSEKETEELMAWMRNVLGSRVTNVKVTLRLDTHPAMVTVLEMGAARHFLRMQQLAKTQEERAQLLQPTLEINPRHALIKKLNQLRASEPGLAQLLVDQIYENAMIAAGLVDDPRAMVGRLNELLVKALERH
Consider B1, for which the binding entry in test [1] and in test [2] was “binds” each time.

B2: TRAP-1 (TNF Receptor-Associated Protein 1), endogenous protein of Raji mitochondrial extracts, Q12931 60-704 (protein, human, UniProt Q12931 60-704, looked up)
chain: B1 chain
With B2, in test [3], the binding entry was “binds”.
